Measurements published in PMC12781765.
Results are given in words; binding and its absence hold for the method and conditions named. Binding seen in cells or lysates may run through a third protein. Some results given as binding are weak or reduced against the parent protein; the word gives no strength. For some assays here: Tags and fused reporters may be left off the sequences shown.

The chains behind the UniProt entries cited, without tags or fusion partners. Where a name states a change or a piece, a line headed by the entry shows the natural chain unless it says otherwise. A line that says so, or that is headed by a name, gives the form on record, which may keep a tag or linker.
UniProt P16520: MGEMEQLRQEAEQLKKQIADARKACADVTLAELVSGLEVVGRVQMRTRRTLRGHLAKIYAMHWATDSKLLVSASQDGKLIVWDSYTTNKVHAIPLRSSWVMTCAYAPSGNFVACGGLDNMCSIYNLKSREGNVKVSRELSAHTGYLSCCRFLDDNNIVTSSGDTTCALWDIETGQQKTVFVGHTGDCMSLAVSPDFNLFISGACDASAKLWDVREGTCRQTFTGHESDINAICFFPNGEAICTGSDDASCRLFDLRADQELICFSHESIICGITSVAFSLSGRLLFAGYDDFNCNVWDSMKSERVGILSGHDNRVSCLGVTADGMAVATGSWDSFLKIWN
UniProt Q9NPQ8: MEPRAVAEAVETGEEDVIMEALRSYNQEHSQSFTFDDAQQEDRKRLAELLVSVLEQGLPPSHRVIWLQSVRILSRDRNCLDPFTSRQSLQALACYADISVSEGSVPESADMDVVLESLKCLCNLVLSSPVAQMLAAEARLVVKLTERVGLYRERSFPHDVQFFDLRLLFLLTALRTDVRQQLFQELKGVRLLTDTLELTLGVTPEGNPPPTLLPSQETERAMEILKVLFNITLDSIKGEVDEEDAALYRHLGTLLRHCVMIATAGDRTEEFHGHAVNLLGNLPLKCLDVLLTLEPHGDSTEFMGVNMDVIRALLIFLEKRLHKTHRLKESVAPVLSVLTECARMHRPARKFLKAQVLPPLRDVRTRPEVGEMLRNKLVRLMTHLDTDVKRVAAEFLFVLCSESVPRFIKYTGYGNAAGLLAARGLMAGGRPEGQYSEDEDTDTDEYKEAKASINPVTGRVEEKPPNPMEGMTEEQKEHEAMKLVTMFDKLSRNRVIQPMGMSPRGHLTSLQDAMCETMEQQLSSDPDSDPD
UniProt P09471: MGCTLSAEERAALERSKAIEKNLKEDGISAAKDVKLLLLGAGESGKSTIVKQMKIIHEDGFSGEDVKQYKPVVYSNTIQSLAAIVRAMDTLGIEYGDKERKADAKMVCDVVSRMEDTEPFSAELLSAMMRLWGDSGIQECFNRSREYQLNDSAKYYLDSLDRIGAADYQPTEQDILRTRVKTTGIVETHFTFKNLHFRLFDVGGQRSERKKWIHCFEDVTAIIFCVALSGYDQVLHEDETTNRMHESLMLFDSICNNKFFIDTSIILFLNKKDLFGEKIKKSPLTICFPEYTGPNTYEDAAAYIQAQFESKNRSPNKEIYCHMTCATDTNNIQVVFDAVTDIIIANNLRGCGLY
Gαo L39_G40insV (non-tagged) (P09471-1, form named): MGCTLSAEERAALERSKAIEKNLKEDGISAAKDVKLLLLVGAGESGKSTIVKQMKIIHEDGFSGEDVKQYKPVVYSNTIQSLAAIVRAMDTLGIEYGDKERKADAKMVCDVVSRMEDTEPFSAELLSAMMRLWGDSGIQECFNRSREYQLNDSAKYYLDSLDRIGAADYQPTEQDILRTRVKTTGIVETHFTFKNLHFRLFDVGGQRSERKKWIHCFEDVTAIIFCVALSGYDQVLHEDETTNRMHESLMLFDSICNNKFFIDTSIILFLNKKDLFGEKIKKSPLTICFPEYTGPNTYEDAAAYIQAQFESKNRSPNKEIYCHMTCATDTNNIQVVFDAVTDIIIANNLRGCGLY

Assays:
Venus-tagged Gβ3γ9 = Venus-tagged Gβ3γ9 (UniProt P16520); assay: FRET or BRET; Gβ3γ9 displacement assay, steady state; HEK293T co-transfected with the Go1-CASE plasmid (Gαo^G92-NLuc, Venus-Gβ3γ9) and non-tagged Gαo or empty pcDNA3.1 (1:3 ratio); furimazine 10 µM; reduction of the BRET signal is read
GFP-Ric8A = GFP-Ric8A (UniProt Q9NPQ8); assay: co-IP; HEK293T co-transfected with the GFP-tagged construct and non-tagged Gαo variants; IP of the GFP fusion with a recombinant GST-tagged nanobody against GFP; Western blot with antibodies against Gαo and GFP; blots quantified with ImageJ
GFP-Ric8B = target: T1, GFP-Ric8B (UniProt Q9NVN3); assay: as above
T1 sequence: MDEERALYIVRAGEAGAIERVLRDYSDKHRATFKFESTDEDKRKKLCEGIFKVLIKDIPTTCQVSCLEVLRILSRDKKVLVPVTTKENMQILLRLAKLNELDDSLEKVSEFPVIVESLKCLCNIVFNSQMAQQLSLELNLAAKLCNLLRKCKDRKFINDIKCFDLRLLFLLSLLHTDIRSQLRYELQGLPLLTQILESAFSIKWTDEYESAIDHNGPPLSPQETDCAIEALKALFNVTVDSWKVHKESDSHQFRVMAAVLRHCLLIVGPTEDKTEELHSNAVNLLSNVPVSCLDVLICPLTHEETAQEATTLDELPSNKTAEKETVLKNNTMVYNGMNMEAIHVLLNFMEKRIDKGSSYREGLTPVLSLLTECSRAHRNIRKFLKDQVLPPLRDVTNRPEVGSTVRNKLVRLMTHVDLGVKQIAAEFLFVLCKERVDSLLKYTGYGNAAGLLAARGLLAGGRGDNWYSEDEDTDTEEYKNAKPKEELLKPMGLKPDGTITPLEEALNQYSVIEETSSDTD

GFP-RGS19 = target: T2, GFP-RGS19 (UniProt P49795); assay: as above
T2 sequence: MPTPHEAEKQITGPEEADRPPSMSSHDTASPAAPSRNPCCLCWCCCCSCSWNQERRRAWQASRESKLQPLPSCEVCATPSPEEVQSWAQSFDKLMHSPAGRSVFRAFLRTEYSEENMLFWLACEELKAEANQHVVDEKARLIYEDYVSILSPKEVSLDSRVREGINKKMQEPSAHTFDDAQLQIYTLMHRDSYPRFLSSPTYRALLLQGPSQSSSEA

Row | binding (Venus-tagged Gβ3γ9) | binding (GFP-Ric8A) | binding (GFP-Ric8B) | binding (GFP-RGS19) | Substance
1 | binds |  |  |  | Gαo^G92-NLuc (wild-type Gαo internally tagged with nano-luciferase) (from UniProt P09471 1-354)
2 |  | binds | binds |  | Gαo G203R (DEE17-linked mutant used as control) (from UniProt P09471 1-354)
3 |  | binds | binds |  | Gαo T327K (non-tagged) (from UniProt P09471-1 1-354)
4 |  | binds | binds |  | Gαo T327R (non-tagged) (from UniProt P09471-1 1-354)
5 |  | binds | binds |  | Gαo L39_G40insV (non-tagged) (from UniProt P09471-1 1-354)
6 | binds |  |  | binds | Gαo wild-type (non-tagged) (from UniProt P09471-1 1-354)
